Assay results as given in article PMC4735351.
These are yes or no findings as the source states them, for the method shown. In cells and extracts the contact can be indirect. Some results given as binding are weak or reduced against the parent protein; the word gives no strength.

Protein sequences, listed by entry. Tags and fused reporters are not part of them.
UniProt P29476: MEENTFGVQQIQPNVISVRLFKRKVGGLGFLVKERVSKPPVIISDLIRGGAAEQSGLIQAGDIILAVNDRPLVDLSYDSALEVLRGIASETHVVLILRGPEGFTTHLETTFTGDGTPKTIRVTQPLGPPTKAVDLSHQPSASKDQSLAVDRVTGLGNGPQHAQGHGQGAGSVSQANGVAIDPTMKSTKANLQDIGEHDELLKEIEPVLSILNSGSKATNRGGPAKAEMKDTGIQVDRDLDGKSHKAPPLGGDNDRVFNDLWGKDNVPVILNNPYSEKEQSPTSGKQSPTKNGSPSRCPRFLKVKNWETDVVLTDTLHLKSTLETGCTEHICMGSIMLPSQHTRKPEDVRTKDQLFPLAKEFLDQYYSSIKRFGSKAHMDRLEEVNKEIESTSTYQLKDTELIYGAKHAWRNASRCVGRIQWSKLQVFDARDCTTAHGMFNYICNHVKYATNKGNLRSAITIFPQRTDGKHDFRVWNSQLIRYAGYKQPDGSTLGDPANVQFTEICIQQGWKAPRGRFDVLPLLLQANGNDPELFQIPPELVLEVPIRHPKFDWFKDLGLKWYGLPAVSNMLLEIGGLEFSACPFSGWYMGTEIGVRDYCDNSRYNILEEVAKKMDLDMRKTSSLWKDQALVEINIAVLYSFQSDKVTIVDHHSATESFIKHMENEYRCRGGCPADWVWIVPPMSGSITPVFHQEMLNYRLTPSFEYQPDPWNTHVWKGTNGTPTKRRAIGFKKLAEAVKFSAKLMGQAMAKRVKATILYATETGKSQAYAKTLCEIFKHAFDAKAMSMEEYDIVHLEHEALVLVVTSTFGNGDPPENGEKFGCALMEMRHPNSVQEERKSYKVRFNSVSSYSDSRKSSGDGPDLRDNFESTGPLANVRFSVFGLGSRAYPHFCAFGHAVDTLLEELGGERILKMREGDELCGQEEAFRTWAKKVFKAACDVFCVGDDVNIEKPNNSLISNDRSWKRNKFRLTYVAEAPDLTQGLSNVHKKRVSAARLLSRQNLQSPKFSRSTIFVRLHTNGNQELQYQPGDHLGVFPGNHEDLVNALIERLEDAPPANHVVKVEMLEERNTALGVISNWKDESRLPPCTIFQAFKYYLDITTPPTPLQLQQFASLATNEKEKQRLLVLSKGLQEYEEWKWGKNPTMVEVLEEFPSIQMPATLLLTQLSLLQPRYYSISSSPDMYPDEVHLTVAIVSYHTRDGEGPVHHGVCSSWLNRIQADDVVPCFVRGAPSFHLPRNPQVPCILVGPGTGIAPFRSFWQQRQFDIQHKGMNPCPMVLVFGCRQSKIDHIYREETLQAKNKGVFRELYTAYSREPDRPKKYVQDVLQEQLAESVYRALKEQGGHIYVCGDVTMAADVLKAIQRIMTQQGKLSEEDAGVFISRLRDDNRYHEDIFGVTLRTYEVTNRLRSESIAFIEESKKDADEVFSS
UniProt O54960: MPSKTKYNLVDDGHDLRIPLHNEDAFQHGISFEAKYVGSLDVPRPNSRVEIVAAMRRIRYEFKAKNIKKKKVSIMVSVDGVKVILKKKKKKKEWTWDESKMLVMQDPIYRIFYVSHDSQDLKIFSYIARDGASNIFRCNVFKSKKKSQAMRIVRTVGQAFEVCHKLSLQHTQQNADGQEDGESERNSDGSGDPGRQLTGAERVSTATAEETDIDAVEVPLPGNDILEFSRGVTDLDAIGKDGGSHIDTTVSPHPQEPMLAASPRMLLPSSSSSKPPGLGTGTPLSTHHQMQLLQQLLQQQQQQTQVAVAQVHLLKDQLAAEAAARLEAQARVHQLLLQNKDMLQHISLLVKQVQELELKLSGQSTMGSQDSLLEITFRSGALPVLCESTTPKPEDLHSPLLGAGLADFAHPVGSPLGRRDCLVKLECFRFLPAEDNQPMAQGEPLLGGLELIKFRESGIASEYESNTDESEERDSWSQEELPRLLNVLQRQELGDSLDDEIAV

Target: neuronal nitric oxide synthase (nNOS) (rat (endogenous in rat brain)) (UniProt P29476)
Experiment: co-IP; rat brain lysate (TEEN, 1% Triton X-100), pre-cleared with protein G agarose, immunoprecipitated with monoclonal nNOS antibody or mouse IgG at 4°C for 2 h; washed with TEEN containing 0.1% Triton X-100; Western blotting for nNOS and NOS1AP isoforms

binding: binds
Substance: Nitric Oxide Synthase 1 Adaptor Protein, long isoform (NOS1AP-L) (from UniProt O54960 1-503)
